Measured values: article PMC6794377

T1: native mouse ThrRS-L (mThrRS-L) (mouse (endogenous in muscle tissue and NIH/3T3)) (UniProt Q8BLY2)
T1 sequence: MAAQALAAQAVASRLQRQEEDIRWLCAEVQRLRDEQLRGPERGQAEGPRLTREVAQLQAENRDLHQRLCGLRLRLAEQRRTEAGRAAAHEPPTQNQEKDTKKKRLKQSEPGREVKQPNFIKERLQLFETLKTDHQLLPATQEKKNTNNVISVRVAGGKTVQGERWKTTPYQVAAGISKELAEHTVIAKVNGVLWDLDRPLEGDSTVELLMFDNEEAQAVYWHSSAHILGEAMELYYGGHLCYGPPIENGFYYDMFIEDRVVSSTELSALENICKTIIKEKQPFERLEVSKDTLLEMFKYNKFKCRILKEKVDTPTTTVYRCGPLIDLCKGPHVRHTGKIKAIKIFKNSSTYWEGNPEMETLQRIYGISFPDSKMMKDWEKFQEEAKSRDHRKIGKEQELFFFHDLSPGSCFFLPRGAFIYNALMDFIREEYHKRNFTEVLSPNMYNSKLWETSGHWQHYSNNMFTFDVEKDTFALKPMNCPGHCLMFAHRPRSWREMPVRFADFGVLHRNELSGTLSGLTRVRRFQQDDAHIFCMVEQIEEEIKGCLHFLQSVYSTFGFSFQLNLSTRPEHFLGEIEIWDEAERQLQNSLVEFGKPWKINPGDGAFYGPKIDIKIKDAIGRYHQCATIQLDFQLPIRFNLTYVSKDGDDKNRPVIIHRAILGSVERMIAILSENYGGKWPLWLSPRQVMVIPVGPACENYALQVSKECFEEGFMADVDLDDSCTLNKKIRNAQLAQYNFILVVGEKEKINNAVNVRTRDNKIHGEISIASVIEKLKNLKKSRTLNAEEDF

B1: mouse ArgRS, endogenous in muscle tissue (enzyme, UniProt Q9D0I9 1-660)
chain: MDGLVAQCSARLLQQEREIKALTAEIDRLKNCGCLEASPSLEQLREENLKLKYRLNILRRSLQEERRKPTKNMININSRLQEVFGCAIRAAYPDLENPPLIVTPSQQPKFGDYQCNSAMGISQMLKAKEQKVSPREIAENITKHLPNNKYIDKVEIAGPGFINVHLRKDFVSEQLTSLLVNGVQLPVLGDKEKVIVDFSSPNIAKEMHVGHLRSTIIGESMSRLFEFAGYDVLRLNHVGDWGTQFGMLIAHLQDKFPDYLTVSPPIGDLQAFYKESKKRFDADEEFKKRAYQCVVLLQSKNPDIMKAWNLICDVSREEFKKIYDALDITLIERGESFYQDRMKDIVKEFEDKGFVQVDDGRKIVFVPGCSVPLTIVKSDGGYTYDTSDLAAIKQRLFEEKANKIIYVVDNGQAIHFQTIFAAAQMIGWYDPKVTLVTHVGFGVVLGEDKKKFKTRSGETVRLMDLLEEGLKRSMDKLKEKERDKVLTEEELKAAQTSVAYGCIKYADLSHNRLNDYIFSFDKMLDDRGNTAAYLLYAFTRIRSIARLANIDEAMLQRAARETKIILDHEKEWKLGRCILRFPEILQKILDDLFLHTLCDYIYELATTFTEFYDSCYCVEKDRQTGKVLKVNMWRMLLCEAVAAVMAKGFDILGIKPVQRM
B2: native mouse ThrRS (mThrRS), endogenous in muscle tissue (enzyme, UniProt Q9D0R2 1-722)
chain: MSQEKASSPSGKMDGEKPVDASEEKRKEGGKKKSKDGGGDGGRAELNPWPEYINTRLDMYNKLKAEHDSILAEKAAKDSKPIKVTLPDGKQVDAESWKTTPYQIACGISQGLADNTVVAKVNKVVWDLDRPLETDCTLELLKFEDEEAQAVYWHSSAHIMGEAMERVYGGCLCYGPPIENGFYYDMYLEEGGVSSNDFSSLETLCKKIIKEKQTFERLEVKKETLLEMFKYNKFKCRILNEKVNTPTTTVYRCGPLIDLCRGPHVRHTGKIKTLKIHKNSSTYWEGKADMETLQRIYGISFPDPKLLKEWEKFQEEAKNRDHRKIGRDQELYFFHELSPGSCFFLPKGAYIYNTLMEFIRSEYRKRGFQEVVTPNIFNSRLWMTSGHWQHYSENMFSFEVEKEQFALKPMNCPGHCLMFDHRPRSWRELPLRLADFGVLHRNELSGALTGLTRVRRFQQDDAHIFCAMEQIEDEIKGCLDFLRTVYSVFGFSFKLNLSTRPEKFLGDIEIWNQAEKQLENSLNEFGEKWELNPGDGAFYGPKIDIQIKDAIGRYHQCATIQLDFQLPIRFNLTYVSHDGDDKKRPVIVHRAILGSVERMIAILTENYGGKWPFWLSPRQVMVVPVGPTCDEYAQKVRQQFHDAKFMADTDLDPGCTLNKKIRNAQLAQYNFILVVGEKEKASGTVNIRTRDNKVHGERTVEETVRRLQQLKQTRSKQAEEEF
B3: Dlat, endogenous in mouse muscle tissue (protein, UniProt Q8BMF4 86-642)
chain: SLPPHQKVPLPSLSPTMQAGTIARWEKKEGEKISEGDLIAEVETDKATVGFESLEECYMAKILVPEGTRDVPVGSIICITVEKPQDIEAFKNYTLDLAAAAAPQAAPAAAPAPAAAPAAPSASAPGSSYPTHMQIVLPALSPTMTMGTVQRWEKKVGEKLSEGDLLAEIETDKATIGFEVQEEGYLAKILVPEGTRDVPLGAPLCIIVEKQEDIAAFADYRPTEVTSLKPQAAPPAPPPVAAVPPTPQPVAPTPSAAPAGPKGRVFVSPLAKKLAAEKGIDLTQVKGTGPEGRIIKKDIDSFVPSKAAPAAAAAMAPPGPRVAPAPAGVFTDIPISNIRRVIAQRLMQSKQTIPHYYLSVDVNMGEVLLVRKELNKMLEGKGKISVNDFIIKASALACLKVPEANSSWMDTVIRQNHVVDVSVAVSTPAGLITPIVFNAHIKGLETIASDVVSLASKAREGKLQPHEFQGGTFTISNLGMFGIKNFSAIINPPQACILAIGASEDKLIPADNEKGFDVASVMSVTLSCDHRVVDGAVGAQWLAEFKKYLEKPITMLL

Molecular target: T1, native mouse ThrRS-L (mThrRS-L) (mouse (endogenous in muscle tissue and NIH/3T3))
Experiment: affinity purification with mass spectrometry; extract of mouse muscle tissue, IP with anti-mThrRS-L antibodies; SDS-PAGE, silver staining, bands cut out for MS

binding, binds:
B1
B2
B3

Results are given in words; binding and its absence hold for the method and conditions named. In cells and extracts the contact can be indirect. Here binding means that the protein was enriched with, or labelled near, the bait; the list need not be complete.
